Measured values published in paper doi:10.1101/2021.01.14.426760.
No constants are given. Whether binding was seen depends on the method and setting. In cells and extracts the contact can be indirect. Some binding calls cover weakened binding; strength is not graded here. For some assays here: Sequences can lack the tags named with a protein.

Sequences of proteins named here, by UniProt entry; tags and fusion partners are left off.
UniProt P42003: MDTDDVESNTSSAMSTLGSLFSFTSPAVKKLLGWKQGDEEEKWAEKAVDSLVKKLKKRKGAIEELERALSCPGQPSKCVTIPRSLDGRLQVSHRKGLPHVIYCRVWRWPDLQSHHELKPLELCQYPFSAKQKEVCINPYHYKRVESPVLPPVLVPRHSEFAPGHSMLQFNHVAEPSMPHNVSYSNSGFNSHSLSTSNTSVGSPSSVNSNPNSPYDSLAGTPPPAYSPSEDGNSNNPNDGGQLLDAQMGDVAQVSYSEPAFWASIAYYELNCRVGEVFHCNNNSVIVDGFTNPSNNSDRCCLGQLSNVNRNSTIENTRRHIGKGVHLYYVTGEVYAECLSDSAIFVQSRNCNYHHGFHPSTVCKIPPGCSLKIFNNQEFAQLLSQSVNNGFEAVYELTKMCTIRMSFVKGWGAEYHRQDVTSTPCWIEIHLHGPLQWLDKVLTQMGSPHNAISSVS

Columns and labels:
[1] = molecular target: T1, GST-EcR (Ecdysone receptor) (Drosophila) (UniProt P34021); test: pull-down
T1 sequence: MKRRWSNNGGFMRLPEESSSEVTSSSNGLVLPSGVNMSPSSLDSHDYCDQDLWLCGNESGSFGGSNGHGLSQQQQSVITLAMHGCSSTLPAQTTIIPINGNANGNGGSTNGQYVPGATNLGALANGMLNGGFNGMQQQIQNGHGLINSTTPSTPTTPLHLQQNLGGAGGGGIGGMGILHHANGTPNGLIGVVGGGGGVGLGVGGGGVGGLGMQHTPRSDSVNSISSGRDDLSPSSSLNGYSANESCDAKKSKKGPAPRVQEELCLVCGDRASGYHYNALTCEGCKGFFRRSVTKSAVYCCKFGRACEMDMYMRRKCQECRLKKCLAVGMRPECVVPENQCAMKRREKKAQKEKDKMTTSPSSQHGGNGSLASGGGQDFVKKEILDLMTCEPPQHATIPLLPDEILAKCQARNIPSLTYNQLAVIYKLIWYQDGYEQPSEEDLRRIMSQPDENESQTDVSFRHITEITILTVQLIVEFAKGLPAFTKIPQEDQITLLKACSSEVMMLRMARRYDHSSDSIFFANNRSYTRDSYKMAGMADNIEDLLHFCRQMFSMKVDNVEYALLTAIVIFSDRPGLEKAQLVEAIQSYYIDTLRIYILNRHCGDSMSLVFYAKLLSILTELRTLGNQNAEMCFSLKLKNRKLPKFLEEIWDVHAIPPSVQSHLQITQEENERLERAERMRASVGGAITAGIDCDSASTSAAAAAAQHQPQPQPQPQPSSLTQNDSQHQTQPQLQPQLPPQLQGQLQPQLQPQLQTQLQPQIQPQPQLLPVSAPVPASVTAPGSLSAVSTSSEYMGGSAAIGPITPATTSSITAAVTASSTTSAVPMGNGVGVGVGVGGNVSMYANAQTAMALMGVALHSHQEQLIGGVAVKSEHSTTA

[2] = molecular target: T2, GST-Usp (Ultraspiracle) (Drosophila) (UniProt P20153); test: pull-down
T2 sequence: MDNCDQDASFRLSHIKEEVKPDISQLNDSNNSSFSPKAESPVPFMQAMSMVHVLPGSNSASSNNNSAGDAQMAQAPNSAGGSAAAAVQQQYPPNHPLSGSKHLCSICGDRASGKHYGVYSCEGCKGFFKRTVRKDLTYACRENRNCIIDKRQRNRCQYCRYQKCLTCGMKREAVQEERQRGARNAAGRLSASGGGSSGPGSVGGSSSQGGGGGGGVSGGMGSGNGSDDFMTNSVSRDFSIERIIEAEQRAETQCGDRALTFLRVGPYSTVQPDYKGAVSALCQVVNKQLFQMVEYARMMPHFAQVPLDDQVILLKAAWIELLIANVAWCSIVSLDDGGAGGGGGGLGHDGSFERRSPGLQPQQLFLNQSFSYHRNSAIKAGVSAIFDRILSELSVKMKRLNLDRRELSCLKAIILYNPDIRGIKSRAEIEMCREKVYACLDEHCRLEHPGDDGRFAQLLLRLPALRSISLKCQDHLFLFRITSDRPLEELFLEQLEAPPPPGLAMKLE

[3] = molecular target: pMad, endogenous in embryos (Drosophila (endogenous in embryos)) (UniProt P42003); test: proximity ligation
[4] = molecular target: T3, Jun, endogenous in embryos (Drosophila (endogenous in embryos)) (UniProt P18289); test: proximity ligation
T3 sequence: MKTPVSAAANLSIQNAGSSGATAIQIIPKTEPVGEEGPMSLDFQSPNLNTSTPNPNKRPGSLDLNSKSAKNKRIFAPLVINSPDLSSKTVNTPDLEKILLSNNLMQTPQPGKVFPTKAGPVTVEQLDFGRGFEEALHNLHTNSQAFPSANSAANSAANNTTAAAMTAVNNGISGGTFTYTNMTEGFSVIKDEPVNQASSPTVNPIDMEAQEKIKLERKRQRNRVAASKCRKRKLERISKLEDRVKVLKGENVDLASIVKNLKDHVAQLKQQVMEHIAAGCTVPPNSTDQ

GST-Jun (Drosophila) = GST-Jun (Drosophila) (UniProt P18289); test: pull-down

Molecule: His-Jun (from UniProt P18289 1-289)
- binding [1]: binds
- binding [2]: binds

B1: Ecdysone receptor (EcR), endogenous in embryos (receptor, UniProt P34021 1-878)
chain: MKRRWSNNGGFMRLPEESSSEVTSSSNGLVLPSGVNMSPSSLDSHDYCDQDLWLCGNESGSFGGSNGHGLSQQQQSVITLAMHGCSSTLPAQTTIIPINGNANGNGGSTNGQYVPGATNLGALANGMLNGGFNGMQQQIQNGHGLINSTTPSTPTTPLHLQQNLGGAGGGGIGGMGILHHANGTPNGLIGVVGGGGGVGLGVGGGGVGGLGMQHTPRSDSVNSISSGRDDLSPSSSLNGYSANESCDAKKSKKGPAPRVQEELCLVCGDRASGYHYNALTCEGCKGFFRRSVTKSAVYCCKFGRACEMDMYMRRKCQECRLKKCLAVGMRPECVVPENQCAMKRREKKAQKEKDKMTTSPSSQHGGNGSLASGGGQDFVKKEILDLMTCEPPQHATIPLLPDEILAKCQARNIPSLTYNQLAVIYKLIWYQDGYEQPSEEDLRRIMSQPDENESQTDVSFRHITEITILTVQLIVEFAKGLPAFTKIPQEDQITLLKACSSEVMMLRMARRYDHSSDSIFFANNRSYTRDSYKMAGMADNIEDLLHFCRQMFSMKVDNVEYALLTAIVIFSDRPGLEKAQLVEAIQSYYIDTLRIYILNRHCGDSMSLVFYAKLLSILTELRTLGNQNAEMCFSLKLKNRKLPKFLEEIWDVHAIPPSVQSHLQITQEENERLERAERMRASVGGAITAGIDCDSASTSAAAAAAQHQPQPQPQPQPSSLTQNDSQHQTQPQLQPQLPPQLQGQLQPQLQPQLQTQLQPQIQPQPQLLPVSAPVPASVTAPGSLSAVSTSSEYMGGSAAIGPITPATTSSITAAVTASSTTSAVPMGNGVGVGVGVGGNVSMYANAQTAMALMGVALHSHQEQLIGGVAVKSEHSTTA
- binding [3]: no binding
- binding [4]: binds

B2: His-EcR (Ecdysone receptor) (receptor, UniProt P34021 1-878)
chain: MKRRWSNNGGFMRLPEESSSEVTSSSNGLVLPSGVNMSPSSLDSHDYCDQDLWLCGNESGSFGGSNGHGLSQQQQSVITLAMHGCSSTLPAQTTIIPINGNANGNGGSTNGQYVPGATNLGALANGMLNGGFNGMQQQIQNGHGLINSTTPSTPTTPLHLQQNLGGAGGGGIGGMGILHHANGTPNGLIGVVGGGGGVGLGVGGGGVGGLGMQHTPRSDSVNSISSGRDDLSPSSSLNGYSANESCDAKKSKKGPAPRVQEELCLVCGDRASGYHYNALTCEGCKGFFRRSVTKSAVYCCKFGRACEMDMYMRRKCQECRLKKCLAVGMRPECVVPENQCAMKRREKKAQKEKDKMTTSPSSQHGGNGSLASGGGQDFVKKEILDLMTCEPPQHATIPLLPDEILAKCQARNIPSLTYNQLAVIYKLIWYQDGYEQPSEEDLRRIMSQPDENESQTDVSFRHITEITILTVQLIVEFAKGLPAFTKIPQEDQITLLKACSSEVMMLRMARRYDHSSDSIFFANNRSYTRDSYKMAGMADNIEDLLHFCRQMFSMKVDNVEYALLTAIVIFSDRPGLEKAQLVEAIQSYYIDTLRIYILNRHCGDSMSLVFYAKLLSILTELRTLGNQNAEMCFSLKLKNRKLPKFLEEIWDVHAIPPSVQSHLQITQEENERLERAERMRASVGGAITAGIDCDSASTSAAAAAAQHQPQPQPQPQPSSLTQNDSQHQTQPQLQPQLPPQLQGQLQPQLQPQLQTQLQPQIQPQPQLLPVSAPVPASVTAPGSLSAVSTSSEYMGGSAAIGPITPATTSSITAAVTASSTTSAVPMGNGVGVGVGVGGNVSMYANAQTAMALMGVALHSHQEQLIGGVAVKSEHSTTA
- binding (GST-Jun (Drosophila)): binds
